This is an account of results in patent publication US20240218058A1.

Chains of the proteins cited; added tags and fusions are not shown. Lines headed by an entry give the natural chain unless they say otherwise; changes in a name come on top.
UniProt P02671: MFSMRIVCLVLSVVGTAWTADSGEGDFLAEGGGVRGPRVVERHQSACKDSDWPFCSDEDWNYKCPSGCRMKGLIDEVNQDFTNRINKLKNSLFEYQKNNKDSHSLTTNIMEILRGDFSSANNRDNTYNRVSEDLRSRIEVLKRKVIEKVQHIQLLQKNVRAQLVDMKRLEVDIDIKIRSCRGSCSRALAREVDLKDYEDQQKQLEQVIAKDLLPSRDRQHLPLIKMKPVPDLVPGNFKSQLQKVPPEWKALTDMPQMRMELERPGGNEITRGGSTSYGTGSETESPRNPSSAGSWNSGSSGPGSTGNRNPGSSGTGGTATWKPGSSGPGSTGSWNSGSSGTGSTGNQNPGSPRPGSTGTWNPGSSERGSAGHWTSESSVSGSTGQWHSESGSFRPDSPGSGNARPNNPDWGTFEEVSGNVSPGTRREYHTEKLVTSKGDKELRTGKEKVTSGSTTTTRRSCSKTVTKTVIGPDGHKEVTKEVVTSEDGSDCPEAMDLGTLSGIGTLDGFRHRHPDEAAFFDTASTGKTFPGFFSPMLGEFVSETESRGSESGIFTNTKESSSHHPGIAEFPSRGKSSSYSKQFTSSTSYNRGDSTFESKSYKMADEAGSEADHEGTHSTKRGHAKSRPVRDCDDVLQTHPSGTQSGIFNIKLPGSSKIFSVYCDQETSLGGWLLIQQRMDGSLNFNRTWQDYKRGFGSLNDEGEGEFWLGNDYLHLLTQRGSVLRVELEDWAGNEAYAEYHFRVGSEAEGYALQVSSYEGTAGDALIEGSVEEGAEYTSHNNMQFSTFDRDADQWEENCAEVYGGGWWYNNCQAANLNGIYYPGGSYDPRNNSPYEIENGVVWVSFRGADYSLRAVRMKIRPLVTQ
UniProt P02675: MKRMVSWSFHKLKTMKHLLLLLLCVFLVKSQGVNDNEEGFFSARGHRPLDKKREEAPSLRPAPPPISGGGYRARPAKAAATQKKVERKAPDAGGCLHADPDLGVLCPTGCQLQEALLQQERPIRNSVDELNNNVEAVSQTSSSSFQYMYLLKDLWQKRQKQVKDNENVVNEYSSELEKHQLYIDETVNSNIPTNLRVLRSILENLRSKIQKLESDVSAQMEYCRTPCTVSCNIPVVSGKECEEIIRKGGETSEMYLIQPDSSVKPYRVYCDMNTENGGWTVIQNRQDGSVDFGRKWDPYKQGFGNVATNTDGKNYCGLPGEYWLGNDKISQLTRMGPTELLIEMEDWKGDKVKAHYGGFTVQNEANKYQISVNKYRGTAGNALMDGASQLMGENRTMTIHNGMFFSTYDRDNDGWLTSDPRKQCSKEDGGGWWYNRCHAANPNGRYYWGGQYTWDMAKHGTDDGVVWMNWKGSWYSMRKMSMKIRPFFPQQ
UniProt P02679: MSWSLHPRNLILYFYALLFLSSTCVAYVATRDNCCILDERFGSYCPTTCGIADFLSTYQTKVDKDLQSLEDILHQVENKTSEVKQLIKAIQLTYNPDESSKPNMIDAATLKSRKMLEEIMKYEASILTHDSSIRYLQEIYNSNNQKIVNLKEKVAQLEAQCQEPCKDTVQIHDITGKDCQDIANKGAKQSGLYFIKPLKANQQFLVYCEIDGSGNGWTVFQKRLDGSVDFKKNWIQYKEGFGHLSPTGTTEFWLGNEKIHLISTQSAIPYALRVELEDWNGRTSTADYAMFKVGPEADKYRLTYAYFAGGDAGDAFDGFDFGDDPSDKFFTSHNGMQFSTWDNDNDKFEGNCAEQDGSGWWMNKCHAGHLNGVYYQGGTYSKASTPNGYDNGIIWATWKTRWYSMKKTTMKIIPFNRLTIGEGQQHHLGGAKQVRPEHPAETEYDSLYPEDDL

For this assay, the target named is human blood clots (human) (UniProt P02671+P02675+P02679). The experiment in a line: immunohistochemical staining of blood clots in a human lung cancer resected specimen.

These are yes or no findings as the source states them, for the method shown. Some entries that bind do so weakly or less than the wild type.

B1: humanized 1101 antibody (antibody, V domains shown)
VH: EVQLVQSGAEVKKPGESLKISCKGSGYSFTSYWMHWVRQMPGKGLEWIGAIYPGNSDTRYSPSFQGQVTISADKSISTAYLQWSSLKASDTAMYYCTRKAHYGNYGFAYWGQGTLVTVSS
VL: DIQMTQSPSSLSASVGDRVTITCRASQHINNWLAWYQQKPGKAPKLLISGATSLQSGVPSRFSGSGSGTDFTLTISSLQPEDFATYYCQQYWSTPLTFGQGTKVEIKR
For the molecule B1, the binding result is “binds”.
